Test results: patent US12357622B2, “Pharmaceutical composition of S1PR modulators” (UNIVERSITA DEGLI STUDI DI FIRENZE, priority 2019, dated 2025)
At least one structure is not confirmed: it was looked up by name or label, or the drawing left a doubt.

Key:
Type in all cases: cell-based, murine
[1] = system: Atrogin-1/MAFbx; experiment: Western Blotting analysis of Atrogin-1/MAFbx protein levels in C2C12 myotubes (atrophy induced by dexamethasone or TNFα); conditions: Dexa alone 100 μM for 48 hours
Description: (§1) C2C12 murine skeletal myoblasts obtained from the American Type Culture Collection (ATCC, Manassas, VA, USA) were cultured in Dulbecco's Modified Eagle's Medium (DMEM) (Sigma, Milan, Italy) with L-glutamine 1%, penicillin/streptomycin 1% (Sigma, Milan, Italy) and Foetal Bovine Serum 10% (FBS) (Sigma, Milan, Italy). For experiments with the myotubes, myoblasts were seeded in 6-wells plates at a concentration of 0.2×10^6 cells/ml. When the cells reached 90-100% confluence (72 hours after seeding), the medium was replaced with the differentiation medium (DM), consisting of DMEM containing antibiotics, glutamine and horse serum (HS) 2% (Sigma, Milan, Italy). The medium was changed every 24-48 hours. The complete cell differentiation was observed after 4-6 days of incubation with HS 2%. […]
The Western Blotting analysis was carried out for determining the protein levels of Atrogin-1/MAFbx in C2C12 myotubes. […] Densitometric analysis of the bands was performed by using NIH IMAGE J (ImageJ software, Bethesda, MD, USA) and Quantity-One (imaging and analysis software from Bio-Rad Laboratories, Hercules, CA) and the intensity of the band was indicated as a relative percentage (mean and standard deviation from the mean), obtained by calculating the ratio of the specific protein with respect to the β-actin intensity and normalizing it to the control, set to 1. […]

[2] = system: C2C12 myotubes; experiment: Phase contrast microscopy of cellular morphology of C2C12 myotubes (diameter, number of myonuclei); conditions: Dexa alone for 48 hours
Description: as §1, with “2%. The C2C12 skeletal myotubes were incubated for 24-48 hours with the indicated compounds: Sphingosine 1-phosphate (S1P) 2 μM, or different concentration of CYM5520, VPC23019 and/or W146 (in the concentration range between 0.25 and 2 μM). CYM5478, TY52156 and siRNA specific for S1PR3 (NCBI ref NM_010101.4, sequence 5′-[…]-3 ′1118-1139 SEQ ID NO: 1, same size random oligonucleotides were used as negative control SCR-siRNA) were used in some of the experiments.” for “2%.”

[3] = system: p38 MAPK; experiment: Western Blotting of phospho p38 MAPK in C2C12 myotubes; conditions: Dexa alone 100 μM for 48 hours
[4] = system: ATF4; experiment: Western Blotting of ATF4 in C2C12 myotubes; conditions: Dexa alone 100 μM for 48 hours

Structure (SMILES): C[C@@H]1C[C@H]2[C@@H]3CCC4=CC(=O)C=C[C@]4(C)[C@@]3(F)[C@@H](O)C[C@]2(C)[C@@]1(O)C(=O)CO [Dexa, dexamethasone]
- expression of Atrogin-1/MAFbx (protein) [1]: upregulation
- cells size and number of myonuclei [2]: reduction of the cells size and the reduction in the number of multiple myonuclei
- expression of phospho p38 MAPK [3]: significantly impaired
- expression of ATF4 [4]: significantly impaired
